Assay results from patent US5741673.

Amino acid sequences for entries named in this document (tags omitted). A change or cut given only in a name is not applied to a line headed by its entry.
UniProt P52947: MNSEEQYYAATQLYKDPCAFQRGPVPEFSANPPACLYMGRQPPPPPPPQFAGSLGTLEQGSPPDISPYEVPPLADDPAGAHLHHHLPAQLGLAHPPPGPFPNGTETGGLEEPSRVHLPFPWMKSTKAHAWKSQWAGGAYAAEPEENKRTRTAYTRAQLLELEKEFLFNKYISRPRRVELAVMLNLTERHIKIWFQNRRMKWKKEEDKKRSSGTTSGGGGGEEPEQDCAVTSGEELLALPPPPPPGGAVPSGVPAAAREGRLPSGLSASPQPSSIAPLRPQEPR

How the values were obtained:
[1] = target: ITF-1 endogenous in Tu-6 nuclear extract (complexes C1 and C2) (rat) (UniProt P52947); assay: competition with a labelled probe; details: protein in an extract
[2] = target: ITF-1 endogenous in Tu-6 nuclear extract (complexes C1 and C2) (rat) (UniProt P52947); assay: EMSA; details: Tu-6 extract; C1 and C2 abolished by anti-ITF-1 antiserum; protein in an extract

## GATCTCAGGCCGGCCGCATGCAC (double strand) [mutant TSE II]
[1]; mutant TSE II did not displace C1 and C2, variant of somatostatin TSE II
  binding result: no binding

## GATCTCAGTAATAATCATGCAG (double strand) [somatostatin TSE II]
[2]
  binding result: binds

## TTGCGAGGCTAATGGTGCG (double strand) [somatostatin TSE I]
[1]; wild-type TSE I displaced C1 and C2 from TSE II probe
  binding result: binds

Results from cells or extracts need not show a direct contact. For part of these data: A negative result means that nothing was seen under these conditions.
